This note sets out measurements from US20040197808A1.

Test [1] has as its target T1, FLAG-tagged linker and ligand-binding regions of the EcR partner protein (USP polypeptide) of the D. melanogaster ecdysone receptor (Drosophila melanogaster) (UniProt P20153).
T1 sequence (looked up): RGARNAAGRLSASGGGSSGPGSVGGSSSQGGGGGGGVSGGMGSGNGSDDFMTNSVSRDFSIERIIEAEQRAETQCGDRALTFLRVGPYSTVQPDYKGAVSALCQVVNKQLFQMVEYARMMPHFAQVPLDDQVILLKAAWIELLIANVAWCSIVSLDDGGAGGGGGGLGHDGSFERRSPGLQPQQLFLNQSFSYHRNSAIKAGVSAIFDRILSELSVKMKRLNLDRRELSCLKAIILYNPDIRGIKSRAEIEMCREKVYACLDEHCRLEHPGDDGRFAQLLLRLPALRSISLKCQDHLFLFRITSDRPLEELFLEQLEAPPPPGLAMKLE
Put plainly: co-purification on FLAG M2 Affinity Gel.

The target of test [2] is T1, FLAG-tagged linker and ligand-binding regions of the EcR partner protein (USP polypeptide) of the D. melanogaster ecdysone receptor (Drosophila melanogaster). Put plainly: baculovirus co-expression in Sf21 and Sf9 cells.

No constants are given. Whether binding was seen depends on the method and setting. For some assays here: Binding seen in cells or lysates may run through a third protein. Some results given as binding are weak or reduced against the parent protein; the word gives no strength. Where a sequence is shown, tags or fusion partners need not be part of it.

B1: oligo-His-tagged linker and ligand-binding regions of the EcR polypeptide of the D. melanogaster ecdysone receptor (receptor, Drosophila melanogaster, UniProt P34021 361-878, looked up, not shown: small tags and cut ends)
chain: SSQHGGNGSLASGGGQDFVKKEILDLMTCEPPQHATIPLLPDEILAKCQARNIPSLTYNQLAVIYKLIWYQDGYEQPSEEDLRRIMSQPDENESQTDVSFRHITEITILTVQLIVEFAKGLPAFTKIPQEDQITLLKACSSEVMMLRMARRYDHSSDSIFFANNRSYTRDSYKMAGMADNIEDLLHFCRQMFSMKVDNVEYALLTAIVIFSDRPGLEKAQLVEAIQSYYIDTLRIYILNRHCGDSMSLVFYAKLLSILTELRTLGNQNAEMCFSLKLKNRKLPKFLEEIWDVHAIPPSVQSHLQITQEENERLERAERMRASVGGAITAGIDCDSASTSAAAAAAQHQPQPQPQPQPSSLTQNDSQHQTQPQLQPQLPPQLQGQLQPQLQPQLQTQLQPQIQPQPQLLPVSAPVPASVTAPGSLSAVSTSSEYMGGSAAIGPITPATTSSITAAVTASSTTSAVPMGNGVGVGVGVGGNVSMYANAQTAMALMGVALHSHQEQLIGGVAVKSEHSTTA
Regarding B1, the binding entry in test [1] and in test [2] was “binds” throughout.
